Laboratory results reported in article PMC10070477.

Sequences of proteins named here, by UniProt entry; tags and fusion partners are left off.
UniProt Q9BSK0: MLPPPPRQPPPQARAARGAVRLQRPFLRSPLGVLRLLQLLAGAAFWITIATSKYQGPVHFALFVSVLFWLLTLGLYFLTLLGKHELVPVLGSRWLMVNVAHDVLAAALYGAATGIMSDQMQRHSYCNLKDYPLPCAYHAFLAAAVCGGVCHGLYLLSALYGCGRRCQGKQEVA
UniProt Q16531: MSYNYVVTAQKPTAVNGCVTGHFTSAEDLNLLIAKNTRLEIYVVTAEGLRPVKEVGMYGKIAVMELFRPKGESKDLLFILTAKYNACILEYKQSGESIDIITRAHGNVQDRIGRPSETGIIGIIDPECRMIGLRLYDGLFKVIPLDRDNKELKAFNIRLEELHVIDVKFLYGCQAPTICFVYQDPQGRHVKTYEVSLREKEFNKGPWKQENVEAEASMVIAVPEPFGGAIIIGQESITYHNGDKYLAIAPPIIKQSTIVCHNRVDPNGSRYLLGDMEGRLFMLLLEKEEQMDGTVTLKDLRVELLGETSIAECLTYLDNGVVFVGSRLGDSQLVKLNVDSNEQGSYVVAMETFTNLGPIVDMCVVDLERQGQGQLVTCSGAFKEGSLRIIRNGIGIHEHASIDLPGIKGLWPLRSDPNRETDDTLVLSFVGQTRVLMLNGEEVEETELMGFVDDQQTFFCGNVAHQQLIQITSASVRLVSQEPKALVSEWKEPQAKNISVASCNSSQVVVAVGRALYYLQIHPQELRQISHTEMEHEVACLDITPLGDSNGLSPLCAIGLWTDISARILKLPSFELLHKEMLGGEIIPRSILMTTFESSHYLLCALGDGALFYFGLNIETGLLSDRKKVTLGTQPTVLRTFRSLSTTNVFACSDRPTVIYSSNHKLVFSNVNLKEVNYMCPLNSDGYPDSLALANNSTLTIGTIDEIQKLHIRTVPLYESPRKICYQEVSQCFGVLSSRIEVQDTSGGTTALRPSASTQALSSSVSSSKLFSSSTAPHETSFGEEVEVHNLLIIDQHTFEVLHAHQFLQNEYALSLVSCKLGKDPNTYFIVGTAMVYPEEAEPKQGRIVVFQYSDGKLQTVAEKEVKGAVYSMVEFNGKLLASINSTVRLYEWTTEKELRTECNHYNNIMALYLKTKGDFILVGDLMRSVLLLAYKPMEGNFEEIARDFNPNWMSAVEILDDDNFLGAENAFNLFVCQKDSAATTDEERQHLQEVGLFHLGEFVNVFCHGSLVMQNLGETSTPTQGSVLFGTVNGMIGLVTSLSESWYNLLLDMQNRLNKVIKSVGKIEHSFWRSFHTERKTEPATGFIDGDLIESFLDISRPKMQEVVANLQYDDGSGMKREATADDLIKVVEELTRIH
UniProt P15559: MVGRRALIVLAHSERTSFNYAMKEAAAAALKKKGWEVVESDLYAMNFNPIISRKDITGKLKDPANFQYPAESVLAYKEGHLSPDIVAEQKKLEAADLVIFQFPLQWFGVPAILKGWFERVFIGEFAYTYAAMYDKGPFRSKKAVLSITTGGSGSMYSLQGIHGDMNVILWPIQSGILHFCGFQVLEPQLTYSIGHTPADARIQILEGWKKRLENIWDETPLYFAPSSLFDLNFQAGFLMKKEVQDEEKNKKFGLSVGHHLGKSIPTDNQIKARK
UniProt P11940: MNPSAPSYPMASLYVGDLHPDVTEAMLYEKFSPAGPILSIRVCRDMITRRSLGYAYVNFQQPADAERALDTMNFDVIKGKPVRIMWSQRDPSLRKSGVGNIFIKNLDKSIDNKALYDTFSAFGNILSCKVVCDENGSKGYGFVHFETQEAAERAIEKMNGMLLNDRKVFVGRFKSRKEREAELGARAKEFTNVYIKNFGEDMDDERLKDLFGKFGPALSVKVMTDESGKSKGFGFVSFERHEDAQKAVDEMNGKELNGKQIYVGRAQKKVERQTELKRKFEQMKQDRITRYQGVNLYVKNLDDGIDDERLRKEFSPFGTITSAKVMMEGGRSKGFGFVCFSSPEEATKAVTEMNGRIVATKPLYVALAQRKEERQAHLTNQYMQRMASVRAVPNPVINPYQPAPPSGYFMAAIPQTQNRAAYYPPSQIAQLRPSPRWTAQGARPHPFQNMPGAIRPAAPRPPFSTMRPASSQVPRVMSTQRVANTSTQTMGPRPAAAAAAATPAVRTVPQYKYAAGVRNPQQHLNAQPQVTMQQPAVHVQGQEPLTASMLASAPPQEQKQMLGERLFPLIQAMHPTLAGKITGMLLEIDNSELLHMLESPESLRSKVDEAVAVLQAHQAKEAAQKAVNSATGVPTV
UniProt Q99497: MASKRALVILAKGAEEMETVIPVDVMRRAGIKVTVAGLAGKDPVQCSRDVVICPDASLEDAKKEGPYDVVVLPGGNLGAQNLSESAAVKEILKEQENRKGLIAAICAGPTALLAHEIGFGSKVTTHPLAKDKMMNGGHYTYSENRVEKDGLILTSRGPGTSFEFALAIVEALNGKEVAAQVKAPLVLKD
UniProt P09874: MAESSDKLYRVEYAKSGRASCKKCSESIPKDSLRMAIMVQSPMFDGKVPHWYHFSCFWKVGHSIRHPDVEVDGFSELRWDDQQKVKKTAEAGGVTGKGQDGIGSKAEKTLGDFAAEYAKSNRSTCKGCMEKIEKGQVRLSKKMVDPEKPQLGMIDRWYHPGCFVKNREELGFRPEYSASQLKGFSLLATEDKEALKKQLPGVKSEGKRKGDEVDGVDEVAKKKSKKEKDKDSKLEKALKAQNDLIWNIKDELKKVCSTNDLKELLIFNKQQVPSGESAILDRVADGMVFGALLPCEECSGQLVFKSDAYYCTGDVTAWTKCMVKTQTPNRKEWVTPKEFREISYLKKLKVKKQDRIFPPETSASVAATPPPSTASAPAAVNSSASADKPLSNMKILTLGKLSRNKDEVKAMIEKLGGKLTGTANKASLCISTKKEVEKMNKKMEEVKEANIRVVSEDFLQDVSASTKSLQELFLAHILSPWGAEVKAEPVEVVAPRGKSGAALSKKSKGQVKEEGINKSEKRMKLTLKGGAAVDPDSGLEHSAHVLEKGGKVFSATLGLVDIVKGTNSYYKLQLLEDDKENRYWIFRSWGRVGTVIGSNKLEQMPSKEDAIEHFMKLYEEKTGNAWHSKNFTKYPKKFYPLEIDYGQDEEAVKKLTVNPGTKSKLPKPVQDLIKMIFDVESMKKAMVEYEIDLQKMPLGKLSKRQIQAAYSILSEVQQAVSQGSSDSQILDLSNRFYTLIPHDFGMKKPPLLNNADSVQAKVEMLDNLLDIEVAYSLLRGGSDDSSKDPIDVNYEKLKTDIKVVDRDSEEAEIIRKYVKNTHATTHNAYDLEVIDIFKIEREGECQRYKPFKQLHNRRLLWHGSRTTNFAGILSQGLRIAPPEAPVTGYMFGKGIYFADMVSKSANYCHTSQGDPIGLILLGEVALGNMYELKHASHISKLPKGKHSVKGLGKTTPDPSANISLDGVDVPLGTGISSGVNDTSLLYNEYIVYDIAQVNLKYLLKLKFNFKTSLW
UniProt Q7Z2W4: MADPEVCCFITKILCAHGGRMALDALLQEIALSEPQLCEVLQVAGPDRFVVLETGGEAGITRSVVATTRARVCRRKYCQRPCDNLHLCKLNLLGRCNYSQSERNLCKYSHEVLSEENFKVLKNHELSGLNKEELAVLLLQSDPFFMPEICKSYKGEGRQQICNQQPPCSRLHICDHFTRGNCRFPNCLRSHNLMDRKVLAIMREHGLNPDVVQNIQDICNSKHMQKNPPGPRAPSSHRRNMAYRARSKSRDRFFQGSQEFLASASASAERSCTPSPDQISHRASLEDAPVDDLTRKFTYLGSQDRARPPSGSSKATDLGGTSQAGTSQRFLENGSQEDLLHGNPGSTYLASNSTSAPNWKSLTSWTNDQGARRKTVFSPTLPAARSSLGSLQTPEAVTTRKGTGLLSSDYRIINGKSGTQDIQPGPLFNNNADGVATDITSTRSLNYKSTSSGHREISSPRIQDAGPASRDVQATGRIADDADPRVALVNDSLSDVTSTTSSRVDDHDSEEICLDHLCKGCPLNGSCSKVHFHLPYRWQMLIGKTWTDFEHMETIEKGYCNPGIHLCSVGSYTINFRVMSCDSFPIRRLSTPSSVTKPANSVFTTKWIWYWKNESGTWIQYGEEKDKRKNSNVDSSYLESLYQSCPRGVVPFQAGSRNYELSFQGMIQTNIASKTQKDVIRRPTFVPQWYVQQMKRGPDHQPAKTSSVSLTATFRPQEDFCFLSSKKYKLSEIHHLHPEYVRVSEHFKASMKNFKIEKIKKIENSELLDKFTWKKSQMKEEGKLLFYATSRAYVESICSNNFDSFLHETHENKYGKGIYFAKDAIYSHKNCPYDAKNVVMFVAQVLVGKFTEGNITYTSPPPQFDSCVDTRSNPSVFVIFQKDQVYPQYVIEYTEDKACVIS

B1: IDH3a (protein, UniProt P50213 28-366)
chain: TGGVQTVTLIPGDGIGPEISAAVMKIFDAAKAPIQWEERNVTAIQGPGGKWMIPSEAKESMDKNKMGLKGPLKTPIAAGHPSMNLLLRKTFDLYANVRPCVSIEGYKTPYTDVNIVTIRENTEGEYSGIEHVIVDGVVQSIKLITEGASKRIAEFAFEYARNNHRSNVTAVHKANIMRMSDGLFLQKCREVAESCKDIKFNEMYLDTVCLNMVQDPSQFDVLVMPNLYGDILSDLCAGLIGGLGVTPSGNIGANGVAIFESVHGTAPDIAGKDMANPTALLLSAVMMLRHMGLFDHAARIEAACFATIKDGKSLTKDLGGNAKCSDFTEEICRRVKDLD
B2: MCM subunit 3 (protein, UniProt P25205 1-808)
chain: MAGTVVLDDVELREAQRDYLDFLDDEEDQGIYQSKVRELISDNQYRLIVNVNDLRRKNEKRANRLLNNAFEELVAFQRALKDFVASIDATYAKQYEEFYVGLEGSFGSKHVSPRTLTSCFLSCVVCVEGIVTKCSLVRPKVVRSVHYCPATKKTIERRYSDLTTLVAFPSSSVYPTKDEENNPLETEYGLSVYKDHQTITIQEMPEKAPAGQLPRSVDVILDDDLVDKAKPGDRVQVVGTYRCLPGKKGGYTSGTFRTVLIACNVKQMSKDAQPSFSAEDIAKIKKFSKTRSKDIFDQLAKSLAPSIHGHDYVKKAILCLLLGGVERDLENGSHIRGDINILLIGDPSVAKSQLLRYVLCTAPRAIPTTGRGSSGVGLTAAVTTDQETGERRLEAGAMVLADRGVVCIDEFDKMSDMDRTAIHEVMEQGRVTIAKAGIHARLNARCSVLAAANPVYGRYDQYKTPMENIGLQDSLLSRFDLLFIMLDQMDPEQDREISDHVLRMHRYRAPGEQDGDAMPLGSAVDILATDDPNFSQEDQQDTQIYEKHDNLLHGTKKKKEKMVSAAFMKKYIHVAKIIKPVLTQESATYIAEEYSRLRSQDSMSSDTARTSPVTARTLETLIRLATAHAKARMSKTVDLQDAEEAVELVQYAYFKKVLEKEKKRKKRSEDESETEDEEEKSQEDQEQKRKRRKTRQPDAKDGDSYDPYDFSDTEEEMPQVHTPKTADSQETKESQKVELSESRLKAFKVALLDVFREAHAQSIGMNRLTESINRDSEEPFSSVEIQAALSKMQDDNQVMVSEGIIFLI
B3: MCM subunit 5 (protein, UniProt P33992 1-734)
chain: MSGFDDPGIFYSDSFGGDAQADEGQARKSQLQRRFKEFLRQYRVGTDRTGFTFKYRDELKRHYNLGEYWIEVEMEDLASFDEDLADYLYKQPAEHLQLLEEAAKEVADEVTRPRPSGEEVLQDIQVMLKSDASPSSIRSLKSDMMSHLVKIPGIIIAASAVRAKATRISIQCRSCRNTLTNIAMRPGLEGYALPRKCNTDQAGRPKCPLDPYFIMPDKCKCVDFQTLKLQELPDAVPHGEMPRHMQLYCDRYLCDKVVPGNRVTIMGIYSIKKFGLTTSRGRDRVGVGIRSSYIRVLGIQVDTDGSGRSFAGAVSPQEEEEFRRLAALPNVYEVISKSIAPSIFGGTDMKKAIACLLFGGSRKRLPDGLTRRGDINLLMLGDPGTAKSQLLKFVEKCSPIGVYTSGKGSSAAGLTASVMRDPSSRNFIMEGGAMVLADGGVVCIDEFDKMREDDRVAIHEAMEQQTISIAKAGITTTLNSRCSVLAAANSVFGRWDETKGEDNIDFMPTILSRFDMIFIVKDEHNEERDVMLAKHVITLHVSALTQTQAVEGEIDLAKLKKFIAYCRVKCGPRLSAEAAEKLKNRYIIMRSGARQHERDSDRRSSIPITVRQLEAIVRIAEALSKMKLQPFATEADVEEALRLFQVSTLDAALSGTLSGVEGFTSQEDQEMLSRIEKQLKRRFAIGSQVSEHSIIKDFTKQKYPEHAIHKVLQLMLRRGEIQHRMQRKVLYRLK
B4: MCM subunit 6 (protein, UniProt Q14566 1-821)
chain: MDLAAAAEPGAGSQHLEVRDEVAEKCQKLFLDFLEEFQSSDGEIKYLQLAEELIRPERNTLVVSFVDLEQFNQQLSTTIQEEFYRVYPYLCRALKTFVKDRKEIPLAKDFYVAFQDLPTRHKIRELTSSRIGLLTRISGQVVRTHPVHPELVSGTFLCLDCQTVIRDVEQQFKYTQPNICRNPVCANRRRFLLDTNKSRFVDFQKVRIQETQAELPRGSIPRSLEVILRAEAVESAQAGDKCDFTGTLIVVPDVSKLSTPGARAETNSRVSGVDGYETEGIRGLRALGVRDLSYRLVFLACCVAPTNPRFGGKELRDEEQTAESIKNQMTVKEWEKVFEMSQDKNLYHNLCTSLFPTIHGNDEVKRGVLLMLFGGVPKTTGEGTSLRGDINVCIVGDPSTAKSQFLKHVEEFSPRAVYTSGKASSAAGLTAAVVRDEESHEFVIEAGALMLADNGVCCIDEFDKMDVRDQVAIHEAMEQQTISITKAGVKATLNARTSILAAANPISGHYDRSKSLKQNINLSAPIMSRFDLFFILVDECNEVTDYAIARRIVDLHSRIEESIDRVYSLDDIRRYLLFARQFKPKISKESEDFIVEQYKHLRQRDGSGVTKSSWRITVRQLESMIRLSEAMARMHCCDEVQPKHVKEAFRLLNKSIIRVETPDVNLDQEEEIQMEVDEGAGGINGHADSPAPVNGINGYNEDINQESAPKASLRLGFSEYCRISNLIVLHLRKVEEEEDESALKRSELVNWYLKEIESEIDSEEELINKKRIIEKVIHRLTHYDHVLIELTQAGLKGSTEGSESYEEDPYLVVNPNYLLED

The molecules below were run against MARVELD1-Flag (UniProt Q9BSK0) (assay: affinity purification with mass spectrometry; HeLa transfected with MARVELD1-Flag or pcDNA3.1, 8 mM hydroxyurea or DMSO for 24 h; IP with anti-DYKDDDDK magnetic agarose, washed five times with PBS, SDS-PAGE, LC-MS/MS; ratio over control of more than 2).

binding, binds:
DDB1 (from UniProt Q16531 1-1140)
NQO1 (from UniProt P15559 1-274)
PABPC1 (from UniProt P11940 1-636)
PARK7 (from UniProt Q99497 1-189)
Poly(ADP-ribose) polymerase 1 (PARP1) (from UniProt P09874 1-1014)
ZC3HAV1 (from UniProt Q7Z2W4 1-902)

Target: MARVELD1-Flag (UniProt Q9BSK0)
Test: as above
Remark: another data set of the same source

binding, binds:
B1
B2
B3
B4

No constants are given. Whether binding was seen depends on the method and setting. In cells and extracts the contact can be indirect. Here binding means that the protein was enriched with, or labelled near, the bait; the list need not be complete.
